Drawing on publication doi:10.1101/2023.03.07.531595, this text covers binding for one molecule.

This assay addresses T1, Tld1-mNeonGreen (Saccharomyces cerevisiae) (UniProt Q05611).
T1 sequence: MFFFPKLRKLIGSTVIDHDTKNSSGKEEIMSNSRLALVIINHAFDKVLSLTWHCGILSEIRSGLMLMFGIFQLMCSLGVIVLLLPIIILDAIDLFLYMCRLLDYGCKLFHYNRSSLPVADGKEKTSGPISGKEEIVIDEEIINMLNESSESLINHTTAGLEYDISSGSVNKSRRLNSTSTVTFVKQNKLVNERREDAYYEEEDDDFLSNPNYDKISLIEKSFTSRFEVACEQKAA
Description: co-IP.

Results are given in words; binding and its absence hold for the method and conditions named. In cells and extracts the contact can be indirect. Where a sequence is shown, tags or fusion partners need not be part of it.

B1: Tgl3-3xHA (enzyme, UniProt P40308 1-642)
chain: MKETAQEYKVSAVIPTLLKNWILRVVYATLDHIPPFVWEILHVITDIYFFWVQKLINYVRPHSRVIYYNAIKKLDECDTYQMWCQQASVVDEITGANLWRRNFFSRRYDFNSVIEQYSILENMLREEKYDVVKEKFSTTGPCMLRNFAGIGDKKLFTKSLMGTKLLIEQYLTRILEGLDILNNQTLTPTSFFQRCKLSLGTTALILQGGSLFGLFHLGVIRGLLLQDLMPNIISGSSMGACVASLFGCLSNEQLKQLLTDDNLLNIIKNDVDLLKSCGYGNLEQHLNLGTLIQNLIHHGYSQDVYLFIRFVMKYIVKEKTFEEVYQITGKVFNIVIHPTDKSCPNLLNYVTTPNVLIKSAIECSLGSGVISEDTSLLCKNLENEIEPFLNINKNKQVKFLTPENANNPSITESPYTRLTELFNVNNFIVSLARPYLAPLVVNDLKHEIKTSKYYYYKHYPNMPPINANTVRKTQRSSSQSPIKAGTVEDLEPEPLMSPVPPSSAVNDSAEYIIPELGIPQLNFTEMEPLAFKFKYHLERKLKNIATMEFRHRMEVLDNLGLLCSLIKRLIIDEKTPRSATEIAVVPRMKSLSLTRIIEGQLNNIPYWIKSGERSTWPALALIKTRCAVEFKLDDIIRARRSR
As for B1, the binding result is “no binding”.
